Values quoted from earlier work in patent US12048763B2, “Compositions and methods for treating sialorrhea” (priority 2021, dated 2024).

Conditions: 1.67 mg atropine intramuscularly to adults by 2 mg AtroPen delivery system

## CN1C2CCC1CC(OC(=O)C(CO)c1ccccc1)C2 (racemic) [atropine, 1αH,5αH-tropan-3-ol (±)-tropate (ester)]
  mean time to maximum plasma concentration (Tmax): 3 min
mean±SEM
  peak plasma concentration Cmax: ~9.6 ± 1.5 ng/mL
